{"source": "PubChem BioAssay AID1259308 – NCATS | 2017", "assay": "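Knock-downs that increase output of a recombinant reporter protein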 (primary screen)", "system": "human HEK293 embryonic kidney cells stably expressing firefly luciferase (HEK-CMV-Luc2-Hygro)", "reagents": "single siRNA against human genes, 0.8 pmol siRNA per well", "time to read-out": "72 h", "detection": "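Luciferase light (ONE-Glo) measured on one replicate plate set and viability (CellTiter-Glo) on the other, scaled to a negative control siRNA, with robust z-scores and luciferase per cell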", "scale": "total luciferase, z-score and total luciferase, % of control: higher = more reporter protein produced", "rule for the call": "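Active when the median/MAD z-score for overall luciferase is greater than 3; a gene was taken forward for validation with new siRNAs if at least two of its three siRNAs passed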", "meaning of the calls": "active = raised luciferase; inactive = no rise", "note": "Shown is one part, drawn at random, of about 59,000 reagents. About 1,510 of all reagents (2.6%) were called active. 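Calls use total luciferase alone and ignore viability, so some active siRNAs may act by altering cell number.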 The numbers tell different reagents against one gene apart. Not all columns of the deposit are shown."}
{"Target gene": "CFAP144P1", "reagent": 1, "total luciferase, z-score": -0.433, "total luciferase, % of control": 73.3, "outcome": "inactive"}
{"Target gene": "CFAP144P1", "reagent": 2, "total luciferase, z-score": -0.127, "total luciferase, % of control": 79.4, "outcome": "inactive"}
{"Target gene": "CFAP144P1", "reagent": 3, "total luciferase, z-score": -2.33, "total luciferase, % of control": 35.5, "outcome": "inactive"}
{"Target gene": "SLC35E2B", "reagent": 1, "total luciferase, z-score": -0.742, "total luciferase, % of control": 67.1, "outcome": "inactive"}
{"Target gene": "SLC35E2B", "reagent": 2, "total luciferase, z-score": -0.191, "total luciferase, % of control": 78.1, "outcome": "inactive"}
{"Target gene": "SLC35E2B", "reagent": 3, "total luciferase, z-score": 0.411, "total luciferase, % of control": 90.1, "outcome": "inactive"}
{"Target gene": "H4C8", "reagent": 1, "total luciferase, z-score": 1.23, "total luciferase, % of control": 106, "outcome": "inactive"}
{"Target gene": "H4C8", "reagent": 2, "total luciferase, z-score": 1.05, "total luciferase, % of control": 103, "outcome": "inactive"}
{"Target gene": "H4C8", "reagent": 3, "total luciferase, z-score": 0.094, "total luciferase, % of control": 83.8, "outcome": "inactive"}
{"Target gene": "FIGLA", "reagent": 1, "total luciferase, z-score": -0.281, "total luciferase, % of control": 76.3, "outcome": "inactive"}
{"Target gene": "FIGLA", "reagent": 2, "total luciferase, z-score": 0.341, "total luciferase, % of control": 88.7, "outcome": "inactive"}
{"Target gene": "FIGLA", "reagent": 3, "total luciferase, z-score": 1.56, "total luciferase, % of control": 113, "outcome": "inactive"}
{"Target gene": "IRF1", "reagent": 1, "total luciferase, z-score": 0.68, "total luciferase, % of control": 95.4, "outcome": "inactive"}
{"Target gene": "IRF1", "reagent": 2, "total luciferase, z-score": -2.38, "total luciferase, % of control": 34.6, "outcome": "inactive"}
{"Target gene": "IRF1", "reagent": 3, "total luciferase, z-score": -2.12, "total luciferase, % of control": 39.8, "outcome": "inactive"}
{"Target gene": "SNPH", "reagent": 1, "total luciferase, z-score": 0.771, "total luciferase, % of control": 97.2, "outcome": "inactive"}
{"Target gene": "SNPH", "reagent": 2, "total luciferase, z-score": 0.0104, "total luciferase, % of control": 82.1, "outcome": "inactive"}
{"Target gene": "SNPH", "reagent": 3, "total luciferase, z-score": 0.866, "total luciferase, % of control": 99.1, "outcome": "inactive"}

3 entries from above, showing only “total luciferase, % of control”:
FIGLA #2: 88.7
FIGLA #3: 113
IRF1 #1: 95.4

Further records:
{"Target gene": "PI15", "reagent": 1, "total luciferase, z-score": 0.373, "total luciferase, % of control": 89.3, "outcome": "inactive"}
{"Target gene": "PI15", "reagent": 2, "total luciferase, z-score": -0.279, "total luciferase, % of control": 76.3, "outcome": "inactive"}
{"Target gene": "PI15", "reagent": 3, "total luciferase, z-score": 1.81, "total luciferase, % of control": 118, "outcome": "inactive"}
{"Target gene": "PREX1", "reagent": 1, "total luciferase, z-score": 0.855, "total luciferase, % of control": 98.9, "outcome": "inactive"}
{"Target gene": "PREX1", "reagent": 2, "total luciferase, z-score": 0.865, "total luciferase, % of control": 99.1, "outcome": "inactive"}
{"Target gene": "PREX1", "reagent": 3, "total luciferase, z-score": -0.106, "total luciferase, % of control": 79.8, "outcome": "inactive"}
{"Target gene": "GPR148", "reagent": 1, "total luciferase, z-score": -0.499, "total luciferase, % of control": 72, "outcome": "inactive"}
{"Target gene": "GPR148", "reagent": 2, "total luciferase, z-score": 2.77, "total luciferase, % of control": 137, "outcome": "inactive"}
{"Target gene": "GPR148", "reagent": 3, "total luciferase, z-score": -0.573, "total luciferase, % of control": 70.5, "outcome": "inactive"}
{"Target gene": "HMG20A", "reagent": 1, "total luciferase, z-score": -1.61, "total luciferase, % of control": 49.8, "outcome": "inactive"}
{"Target gene": "HMG20A", "reagent": 2, "total luciferase, z-score": 0.221, "total luciferase, % of control": 86.3, "outcome": "inactive"}
{"Target gene": "HMG20A", "reagent": 3, "total luciferase, z-score": -1.88, "total luciferase, % of control": 44.5, "outcome": "inactive"}
{"Target gene": "UBE2U", "reagent": 1, "total luciferase, z-score": 0.23, "total luciferase, % of control": 86.5, "outcome": "inactive"}
{"Target gene": "UBE2U", "reagent": 2, "total luciferase, z-score": 1.68, "total luciferase, % of control": 115, "outcome": "inactive"}
{"Target gene": "UBE2U", "reagent": 3, "total luciferase, z-score": -1.08, "total luciferase, % of control": 60.4, "outcome": "inactive"}
